# Data taken from the supplement of paper PMC7238544.
# Counter-ions that a name gives are not always drawn. ± gives the standard deviation of the averaged measurements. This is one part of the list. The data scatter; read single values as rough.
# Legend:
# [1] = system: hAMSC donor 1; test: Hoechst total cell count ratio vs vehicle control; higher = more cells (less toxicity)
# [2] = system: hAMSC donor 2; test: as above
# [3] = system: hAMSC donor 2; test: transgenic luciferase activity (RLU/mg protein) fold change vs vehicle control (ratio); higher = more transgene expression
# [4] = system: hAMSC donor 1; test: transfection efficiency (EGFP+ cells / Hoechst count) fold change vs vehicle control (ratio); hAMSC are human adipose-derived mesenchymal stem cells given an EGFP-luciferase plasmid by lipofection; higher = enhanced transfection
# [5] = system: hAMSC donor 2; test: as above
# [6] = priming compound concentration 0.2 µM
# [7] = priming compound concentration 1.7 µM
# [8] = priming compound concentration 13 µM
Structure (SMILES),"Hoechst total cell count ratio [1, 6]","Hoechst total cell count ratio [1, 7]","Hoechst total cell count ratio [1, 8]","Hoechst total cell count ratio [2, 6]","Hoechst total cell count ratio [2, 7]","Hoechst total cell count ratio [2, 8]","transgenic luciferase activity [3, 7]","transfection efficiency [4, 6]","transfection efficiency [4, 7]","transfection efficiency [4, 8]","transfection efficiency [5, 6]","transfection efficiency [5, 7]","transfection efficiency [5, 8]","transgenic luciferase activity [3, 8]"
Nc1c2c(nc3ccccc13)CCCC2 [Tacrine hydrochloride],1.28 ± 0.15,1.13 ± 0.17,1.38 ± 0.061,1.13 ± 0.024,1.2 ± 0.019,1.83 ± 0.21,0.453 ± 0.019,1.14 ± 0.19,1.33 ± 0.39,0.881 ± 0.089,1.06 ± 0.15,1.11 ± 0.2,1.02 ± 0.36,
COCCCC/C(=N\OCCN)c1ccc(C(F)(F)F)cc1 [Fluvoxamine maleate],1.16 ± 0.13,1.22 ± 0.18,1.35 ± 0.2,0.859 ± 0.25,1.14 ± 0.034,1.06 ± 0.086,,0.677 ± 0.35,0.719 ± 0.11,0.63 ± 0.26,0.934 ± 0.13,1.01 ± 0.031,0.876 ± 0.21,1.3 ± 0.37
Clc1ccccc1CN1CCc2sccc2C1 [Ticlopidine hydrochloride],1.66 ± 0.18,1.35 ± 0.19,1.29 ± 0.095,0.985 ± 0.23,1.12 ± 0.1,1.28 ± 0.1,0.431 ± 0.011,0.829 ± 0.26,1.04 ± 0.11,1.25 ± 0.15,1.05 ± 0.11,1.29 ± 0.11,1.32 ± 0.38,
CCOc1cc(N)c(Cl)cc1C(=O)NCC1CN(Cc2ccc(F)cc2)CCO1 (stereo not drawn) [Mosapride citrate],1.33 ± 0.071,1.38 ± 0.24,1.38 ± 0.22,0.953 ± 0.14,1.04 ± 0.14,1.48 ± 0.036,0.5433 ± 0.0032,1.64 ± 0.15,1.61 ± 0.22,1.16 ± 0.2,1.18 ± 0.16,1.14 ± 0.089,1.2 ± 0.16,
CCCCCNC(=N)N/N=C/c1c[nH]c2ccc(OC)cc12 [Tegaserod maleate],1.46 ± 0.26,1.22 ± 0.13,0.316 ± 0.13,1 ± 0.11,1.02 ± 0.077,0.206 ± 0.027,,0.953 ± 0.25,1.22 ± 0.36,0.0925 ± 0.12,1.04 ± 0.25,1.14 ± 0.17,0.0987 ± 0.05,0.0159 ± 0.012
CCc1nn(CCCN2CCN(c3cccc(Cl)c3)CC2)c(=O)n1CCOc1ccccc1 [Nefazodone hydrochloride],1.34 ± 0.34,1.27 ± 0.1,1.66 ± 0.38,1.07 ± 0.031,1.13 ± 0.072,1.06 ± 0.042,,1.02 ± 0.2,1.34 ± 0.35,0.589 ± 0.044,1.05 ± 0.15,1.26 ± 0.36,0.83 ± 0.06,0.591 ± 0.077
CN[C@H]1CC[C@@H](c2ccc(Cl)c(Cl)c2)c2ccccc21 [Sertraline hydrochloride],1.21 ± 0.076,1.34 ± 0.23,1.56 ± 0.098,1.2 ± 0.23,1.29 ± 0.14,1.48 ± 0.051,0.448 ± 0.081,1.22 ± 0.32,1.13 ± 0.26,0.718 ± 0.14,1.03 ± 0.025,1.16 ± 0.074,0.905 ± 0.15,
CN(C)CC[C@@H](c1ccc(Cl)cc1)c1ccccn1 [Dexchlorpheniramine maleate],1.28 ± 0.18,1.19 ± 0.2,1.26 ± 0.084,1.08 ± 0.1,1.08 ± 0.11,0.924 ± 0.072,,1.12 ± 0.22,1.15 ± 0.31,1.16 ± 0.066,0.992 ± 0.19,1.45 ± 0.12,1.24 ± 0.28,0.971 ± 0.052
NC[C@H]1CC[C@H](C(=O)Oc2ccc(CCC(=O)O)cc2)CC1 [Cetraxate hydrochloride],1.11 ± 0.13,1.38 ± 0.14,1.01 ± 0.043,1.28 ± 0.044,1.25 ± 0.061,1.02 ± 0.1,,0.595 ± 0.23,0.866 ± 0.19,1.38 ± 0.36,0.965 ± 0.046,1.09 ± 0.048,1.18 ± 0.35,0.518 ± 0.066
Cc1[nH]c(=O)c(C#N)cc1-c1ccncc1 [Milrinone],1.35 ± 0.22,1.28 ± 0.38,1.48 ± 0.45,1.12 ± 0.19,1.04 ± 0.094,1.06 ± 0.18,,0.939 ± 0.2,1.33 ± 0.34,0.816 ± 0.19,1.07 ± 0.23,1.23 ± 0.032,0.961 ± 0.26,0.743 ± 0.016
Nc1nc(O)c2ncn(CCC(CO)CO)c2n1 [Penciclovir],1.19 ± 0.12,1.12 ± 0.016,1.31 ± 0.043,1.36 ± 0.2,1.13 ± 0.068,1.14 ± 0.039,,1.24 ± 0.041,1.05 ± 0.12,0.653 ± 0.22,0.914 ± 0.22,1.18 ± 0.18,1.19 ± 0.19,0.808 ± 0.2
COc1nc(C)nc(Cl)c1NC1=NCCN1 [Moxonidine hydrochloride],1.58 ± 0.21,1.55 ± 0.11,1.38 ± 0.18,1.1 ± 0.15,0.949 ± 0.13,1.18 ± 0.27,0.683 ± 0.096,0.916 ± 0.092,1.03 ± 0.11,1.18 ± 0.16,1.21 ± 0.18,1.21 ± 0.19,1.21 ± 0.11,
Oc1ccc(C2CNCCc3c2cc(O)c(O)c3Cl)cc1 (stereo not drawn) [Fenoldopam mesylate],1.63 ± 0.2,1.53 ± 0.035,1.55 ± 0.1,1.18 ± 0.24,1.02 ± 0.1,1.04 ± 0.16,0.852 ± 0.16,0.894 ± 0.057,0.951 ± 0.041,0.915 ± 0.26,0.994 ± 0.16,1.49 ± 0.091,1.35 ± 0.096,
O=c1c(O[C@@H]2O[C@H](CO)[C@H](O)[C@H](O)[C@H]2O)c(-c2ccc(O)c(O)c2)oc2cc(O)cc(O)c12 [Hyperoside],0.984 ± 0.12,1.38 ± 0.28,1.36 ± 0.021,0.874 ± 0.17,1.18 ± 0.12,0.987 ± 0.13,,1 ± 0.36,0.7 ± 0.18,0.796 ± 0.14,1.02 ± 0.17,1.05 ± 0.094,1.14 ± 0.18,0.445 ± 0.23
Nc1ccn([C@@H]2CS[C@H](CO)O2)c(=O)n1 [Lamivudine],1.12 ± 0.21,1.43 ± 0.25,1.3 ± 0.15,0.986 ± 0.21,1 ± 0.083,0.842 ± 0.015,,1.27 ± 0.52,0.913 ± 0.36,0.887 ± 0.18,1.08 ± 0.015,1.16 ± 0.16,1.28 ± 0.18,0.676 ± 0.083
CC[N+](C)(CC)CCOC(=O)C(O)(c1ccccc1)C1CCCCC1 (stereo not drawn) [Oxyphenonium bromide],1.6 ± 0.052,1.3 ± 0.099,2.08 ± 0.17,1.18 ± 0.21,1.17 ± 0.017,0.984 ± 0.017,,0.833 ± 0.21,0.978 ± 0.19,0.365 ± 0.026,1.06 ± 0.18,1.31 ± 0.18,0.882 ± 0.11,0.733 ± 0.12
Cc1c(C(=O)NN2CCCCC2)nn(-c2ccc(Cl)cc2Cl)c1-c1ccc(I)cc1,,,,,,,,0.845 ± 0.11,0.912 ± 0.28,0.579 ± 0.19,0.927 ± 0.1,1.59 ± 0.23,0.875 ± 0.061,0.929 ± 0.29
CN1CCC(=C2c3ccccc3CC(=O)c3sccc32)CC1 [Ketotifen fumarate],1.35 ± 0.44,1.25 ± 0.16,1.54 ± 0.068,1.22 ± 0.096,1.37 ± 0.085,1.34 ± 0.096,0.419 ± 0.097,0.895 ± 0.18,1.4 ± 0.18,0.874 ± 0.15,1.07 ± 0.17,1.22 ± 0.22,1.26 ± 0.033,

# A different layout for 2 compounds above:
Structure (SMILES)	Hoechst total cell count ratio [1, 6]	Hoechst total cell count ratio [1, 7]	Hoechst total cell count ratio [1, 8]	Hoechst total cell count ratio [2, 6]	Hoechst total cell count ratio [2, 7]	Hoechst total cell count ratio [2, 8]	transgenic luciferase activity [3, 7]	transfection efficiency [4, 6]	transfection efficiency [4, 7]	transfection efficiency [4, 8]	transfection efficiency [5, 6]	transfection efficiency [5, 7]	transfection efficiency [5, 8]	transgenic luciferase activity [3, 8]
COCCCC/C(=N\OCCN)c1ccc(C(F)(F)F)cc1 [Fluvoxamine maleate]	1.16 ± 0.13	1.22 ± 0.18	1.35 ± 0.2	0.859 ± 0.25	1.14 ± 0.034	1.06 ± 0.086		0.677 ± 0.35	0.719 ± 0.11	0.63 ± 0.26	0.934 ± 0.13	1.01 ± 0.031	0.876 ± 0.21	1.3 ± 0.37
Clc1ccccc1CN1CCc2sccc2C1 [Ticlopidine hydrochloride]	1.66 ± 0.18	1.35 ± 0.19	1.29 ± 0.095	0.985 ± 0.23	1.12 ± 0.1	1.28 ± 0.1	0.431 ± 0.011	0.829 ± 0.26	1.04 ± 0.11	1.25 ± 0.15	1.05 ± 0.11	1.29 ± 0.11	1.32 ± 0.38	
